From the supplement of paper PMC6411743
± gives the standard deviation of the averaged measurements. This is a selection; strong and weak results do not stand in their true shares. Most entries show no effect beyond the scatter of the controls.

By UniProt entry, the sequences of proteins in these tests, tags left out. Where a name states a change or a piece, a line headed by the entry shows the natural chain unless it says otherwise.
UniProt Q9BVL4, whole entry: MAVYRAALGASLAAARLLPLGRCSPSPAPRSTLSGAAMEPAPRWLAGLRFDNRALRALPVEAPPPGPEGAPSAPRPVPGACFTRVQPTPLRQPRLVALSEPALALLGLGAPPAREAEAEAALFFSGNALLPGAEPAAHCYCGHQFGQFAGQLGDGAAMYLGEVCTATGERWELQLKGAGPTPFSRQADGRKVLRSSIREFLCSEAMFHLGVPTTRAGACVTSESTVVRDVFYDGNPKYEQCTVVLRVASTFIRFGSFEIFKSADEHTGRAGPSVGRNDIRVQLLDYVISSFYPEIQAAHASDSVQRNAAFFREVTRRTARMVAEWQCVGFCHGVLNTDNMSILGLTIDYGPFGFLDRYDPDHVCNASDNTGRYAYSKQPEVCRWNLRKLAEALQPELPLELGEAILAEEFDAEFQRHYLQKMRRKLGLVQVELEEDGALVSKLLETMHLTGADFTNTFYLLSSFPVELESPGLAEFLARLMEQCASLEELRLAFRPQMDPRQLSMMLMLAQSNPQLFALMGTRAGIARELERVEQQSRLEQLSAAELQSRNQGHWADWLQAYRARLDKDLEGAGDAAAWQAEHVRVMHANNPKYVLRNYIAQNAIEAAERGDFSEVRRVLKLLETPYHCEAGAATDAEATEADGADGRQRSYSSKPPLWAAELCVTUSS
UniProt Q5HYA8: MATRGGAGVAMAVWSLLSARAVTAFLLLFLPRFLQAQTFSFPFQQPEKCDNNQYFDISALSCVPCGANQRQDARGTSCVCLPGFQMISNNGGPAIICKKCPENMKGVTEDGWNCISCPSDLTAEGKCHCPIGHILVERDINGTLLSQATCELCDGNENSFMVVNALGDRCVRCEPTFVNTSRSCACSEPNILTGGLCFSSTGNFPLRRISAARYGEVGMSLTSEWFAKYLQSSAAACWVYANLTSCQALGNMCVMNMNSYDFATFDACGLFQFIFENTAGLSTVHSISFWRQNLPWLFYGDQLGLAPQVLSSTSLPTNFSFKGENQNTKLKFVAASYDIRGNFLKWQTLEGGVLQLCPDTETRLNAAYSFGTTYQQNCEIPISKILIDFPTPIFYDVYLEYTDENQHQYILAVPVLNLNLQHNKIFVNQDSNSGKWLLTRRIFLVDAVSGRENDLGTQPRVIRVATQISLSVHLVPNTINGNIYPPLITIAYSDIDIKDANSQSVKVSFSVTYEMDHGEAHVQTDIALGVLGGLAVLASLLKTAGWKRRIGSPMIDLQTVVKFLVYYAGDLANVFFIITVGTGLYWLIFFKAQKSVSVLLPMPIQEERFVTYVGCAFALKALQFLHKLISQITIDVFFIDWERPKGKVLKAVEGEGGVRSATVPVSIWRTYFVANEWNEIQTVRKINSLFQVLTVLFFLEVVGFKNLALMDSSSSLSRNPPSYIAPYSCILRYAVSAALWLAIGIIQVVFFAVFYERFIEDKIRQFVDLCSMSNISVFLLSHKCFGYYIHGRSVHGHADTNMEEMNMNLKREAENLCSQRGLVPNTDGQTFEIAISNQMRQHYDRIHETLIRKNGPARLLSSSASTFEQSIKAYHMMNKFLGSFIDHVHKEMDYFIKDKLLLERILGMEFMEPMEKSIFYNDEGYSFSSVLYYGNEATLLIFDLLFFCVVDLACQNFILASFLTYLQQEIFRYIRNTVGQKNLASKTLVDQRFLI
UniProt Q96CS7: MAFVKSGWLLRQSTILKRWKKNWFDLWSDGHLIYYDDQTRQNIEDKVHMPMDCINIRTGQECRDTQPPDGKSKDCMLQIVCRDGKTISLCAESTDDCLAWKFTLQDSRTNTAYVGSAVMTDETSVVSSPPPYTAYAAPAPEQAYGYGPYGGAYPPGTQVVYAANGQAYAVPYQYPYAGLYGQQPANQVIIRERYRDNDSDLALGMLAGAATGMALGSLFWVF
UniProt Q96BW1: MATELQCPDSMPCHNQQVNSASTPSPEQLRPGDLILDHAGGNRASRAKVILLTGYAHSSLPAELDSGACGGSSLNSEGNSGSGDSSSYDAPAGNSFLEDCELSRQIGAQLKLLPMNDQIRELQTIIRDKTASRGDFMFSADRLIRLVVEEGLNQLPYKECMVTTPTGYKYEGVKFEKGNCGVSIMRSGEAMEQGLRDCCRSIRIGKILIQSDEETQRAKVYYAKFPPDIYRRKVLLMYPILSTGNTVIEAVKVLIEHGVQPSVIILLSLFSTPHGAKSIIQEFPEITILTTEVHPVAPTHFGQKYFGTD
UniProt Q70IA6: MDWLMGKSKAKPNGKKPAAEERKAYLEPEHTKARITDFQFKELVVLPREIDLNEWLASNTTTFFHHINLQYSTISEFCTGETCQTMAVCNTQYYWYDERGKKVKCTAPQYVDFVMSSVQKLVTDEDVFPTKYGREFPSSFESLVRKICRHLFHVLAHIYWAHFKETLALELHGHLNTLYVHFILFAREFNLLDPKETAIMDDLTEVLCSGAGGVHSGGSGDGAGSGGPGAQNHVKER
UniProt Q9NQ55: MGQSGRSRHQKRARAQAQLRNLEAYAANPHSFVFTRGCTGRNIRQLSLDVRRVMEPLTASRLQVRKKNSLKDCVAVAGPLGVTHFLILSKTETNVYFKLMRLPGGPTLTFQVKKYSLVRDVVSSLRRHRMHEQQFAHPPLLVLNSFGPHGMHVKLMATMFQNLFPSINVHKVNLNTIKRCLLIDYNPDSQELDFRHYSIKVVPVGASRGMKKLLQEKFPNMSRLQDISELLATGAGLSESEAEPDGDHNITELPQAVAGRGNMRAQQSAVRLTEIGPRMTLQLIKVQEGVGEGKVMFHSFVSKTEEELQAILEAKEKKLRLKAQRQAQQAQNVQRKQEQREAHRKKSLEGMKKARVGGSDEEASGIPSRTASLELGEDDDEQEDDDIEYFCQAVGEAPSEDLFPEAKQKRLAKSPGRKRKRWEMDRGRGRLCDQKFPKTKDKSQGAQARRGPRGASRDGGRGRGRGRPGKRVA
UniProt Q8N543: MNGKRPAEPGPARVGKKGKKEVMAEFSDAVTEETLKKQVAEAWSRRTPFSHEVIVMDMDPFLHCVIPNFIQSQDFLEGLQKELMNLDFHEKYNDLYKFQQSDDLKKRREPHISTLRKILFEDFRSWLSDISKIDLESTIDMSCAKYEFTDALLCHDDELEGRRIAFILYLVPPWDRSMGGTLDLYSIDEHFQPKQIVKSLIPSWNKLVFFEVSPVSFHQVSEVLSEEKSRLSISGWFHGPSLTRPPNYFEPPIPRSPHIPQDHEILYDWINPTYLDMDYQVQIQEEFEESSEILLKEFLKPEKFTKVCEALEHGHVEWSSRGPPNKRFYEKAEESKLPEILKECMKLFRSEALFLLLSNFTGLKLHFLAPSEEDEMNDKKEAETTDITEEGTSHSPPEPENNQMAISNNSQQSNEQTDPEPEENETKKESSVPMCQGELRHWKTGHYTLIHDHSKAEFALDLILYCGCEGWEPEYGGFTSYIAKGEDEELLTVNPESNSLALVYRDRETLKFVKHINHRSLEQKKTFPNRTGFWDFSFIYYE
UniProt P51790: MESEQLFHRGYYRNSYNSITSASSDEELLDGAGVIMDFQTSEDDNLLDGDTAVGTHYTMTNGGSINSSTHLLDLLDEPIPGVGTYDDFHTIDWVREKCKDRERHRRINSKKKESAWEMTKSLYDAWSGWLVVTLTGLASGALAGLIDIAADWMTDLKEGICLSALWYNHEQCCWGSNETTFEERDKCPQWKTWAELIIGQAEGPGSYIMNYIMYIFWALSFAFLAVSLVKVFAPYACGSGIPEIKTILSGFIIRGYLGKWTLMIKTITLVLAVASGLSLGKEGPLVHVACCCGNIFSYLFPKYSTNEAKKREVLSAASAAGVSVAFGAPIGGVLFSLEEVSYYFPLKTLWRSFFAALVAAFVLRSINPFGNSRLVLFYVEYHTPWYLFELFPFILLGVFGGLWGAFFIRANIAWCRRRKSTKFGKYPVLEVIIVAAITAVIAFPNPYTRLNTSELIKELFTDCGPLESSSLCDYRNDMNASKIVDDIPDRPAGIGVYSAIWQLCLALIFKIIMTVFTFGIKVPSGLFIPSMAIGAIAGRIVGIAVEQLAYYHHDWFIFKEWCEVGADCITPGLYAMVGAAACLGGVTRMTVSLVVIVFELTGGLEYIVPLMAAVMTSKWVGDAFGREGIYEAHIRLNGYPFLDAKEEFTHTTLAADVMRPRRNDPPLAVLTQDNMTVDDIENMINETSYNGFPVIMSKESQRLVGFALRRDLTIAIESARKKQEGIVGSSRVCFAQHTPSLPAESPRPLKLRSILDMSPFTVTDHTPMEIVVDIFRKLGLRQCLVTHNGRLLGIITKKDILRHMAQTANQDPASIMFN
UniProt P47974: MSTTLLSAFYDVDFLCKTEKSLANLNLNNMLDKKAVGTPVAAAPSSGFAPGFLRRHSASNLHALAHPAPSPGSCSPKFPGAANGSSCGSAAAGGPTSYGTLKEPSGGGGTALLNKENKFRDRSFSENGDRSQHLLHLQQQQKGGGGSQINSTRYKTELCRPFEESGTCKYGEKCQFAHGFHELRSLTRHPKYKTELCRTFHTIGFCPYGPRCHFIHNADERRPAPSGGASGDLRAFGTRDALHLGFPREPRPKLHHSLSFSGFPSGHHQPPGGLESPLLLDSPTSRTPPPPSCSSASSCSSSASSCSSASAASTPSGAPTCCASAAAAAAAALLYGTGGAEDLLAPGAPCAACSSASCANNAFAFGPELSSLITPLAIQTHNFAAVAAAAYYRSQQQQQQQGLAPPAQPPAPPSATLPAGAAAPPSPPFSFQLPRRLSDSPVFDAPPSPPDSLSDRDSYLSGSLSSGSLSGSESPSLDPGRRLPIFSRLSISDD
UniProt P54252: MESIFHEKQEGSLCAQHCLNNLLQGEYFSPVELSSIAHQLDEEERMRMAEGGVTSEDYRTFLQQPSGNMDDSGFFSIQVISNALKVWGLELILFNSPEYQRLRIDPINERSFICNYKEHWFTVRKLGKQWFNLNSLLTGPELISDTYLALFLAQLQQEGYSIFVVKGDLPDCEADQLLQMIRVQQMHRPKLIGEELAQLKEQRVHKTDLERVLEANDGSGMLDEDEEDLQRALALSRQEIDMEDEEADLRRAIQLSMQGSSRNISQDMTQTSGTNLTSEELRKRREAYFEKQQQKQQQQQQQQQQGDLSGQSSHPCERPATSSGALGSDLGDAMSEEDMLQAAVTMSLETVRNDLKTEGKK
UniProt Q6DN90: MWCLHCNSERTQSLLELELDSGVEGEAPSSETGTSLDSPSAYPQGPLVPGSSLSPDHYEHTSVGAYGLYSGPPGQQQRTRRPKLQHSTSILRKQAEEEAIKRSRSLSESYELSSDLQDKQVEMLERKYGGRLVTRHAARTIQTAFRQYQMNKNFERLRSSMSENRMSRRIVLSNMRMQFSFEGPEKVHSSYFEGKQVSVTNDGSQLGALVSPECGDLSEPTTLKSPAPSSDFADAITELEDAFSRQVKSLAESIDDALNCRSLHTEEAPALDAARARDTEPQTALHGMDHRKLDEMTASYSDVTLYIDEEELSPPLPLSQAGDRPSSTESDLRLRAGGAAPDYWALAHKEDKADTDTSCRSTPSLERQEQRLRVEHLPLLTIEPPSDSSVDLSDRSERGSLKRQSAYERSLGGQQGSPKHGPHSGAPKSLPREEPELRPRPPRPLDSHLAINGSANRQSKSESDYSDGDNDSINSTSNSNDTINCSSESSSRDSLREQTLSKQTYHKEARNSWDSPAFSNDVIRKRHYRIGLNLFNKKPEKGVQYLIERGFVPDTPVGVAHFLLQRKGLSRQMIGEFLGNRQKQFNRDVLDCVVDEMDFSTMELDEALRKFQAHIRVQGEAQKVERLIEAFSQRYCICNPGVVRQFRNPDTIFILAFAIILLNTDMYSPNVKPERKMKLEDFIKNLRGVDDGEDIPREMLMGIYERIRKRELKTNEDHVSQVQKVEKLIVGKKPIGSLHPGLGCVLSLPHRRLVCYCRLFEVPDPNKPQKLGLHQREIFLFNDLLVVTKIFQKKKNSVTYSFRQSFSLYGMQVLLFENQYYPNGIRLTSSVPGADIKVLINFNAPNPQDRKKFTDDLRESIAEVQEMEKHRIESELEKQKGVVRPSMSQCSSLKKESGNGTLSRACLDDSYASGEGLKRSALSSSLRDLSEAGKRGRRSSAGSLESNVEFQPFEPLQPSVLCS
UniProt Q8IXJ6: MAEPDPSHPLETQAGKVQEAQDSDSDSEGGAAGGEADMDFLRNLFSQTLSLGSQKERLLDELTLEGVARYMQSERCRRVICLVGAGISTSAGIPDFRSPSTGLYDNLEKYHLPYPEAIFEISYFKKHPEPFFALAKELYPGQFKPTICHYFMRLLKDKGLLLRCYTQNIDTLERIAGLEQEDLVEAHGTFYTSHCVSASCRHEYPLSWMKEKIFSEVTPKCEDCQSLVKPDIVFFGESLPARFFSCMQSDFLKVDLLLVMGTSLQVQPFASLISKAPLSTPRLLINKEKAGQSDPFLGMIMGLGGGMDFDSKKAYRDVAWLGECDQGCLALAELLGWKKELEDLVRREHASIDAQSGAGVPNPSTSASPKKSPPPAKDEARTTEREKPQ
UniProt Q15651: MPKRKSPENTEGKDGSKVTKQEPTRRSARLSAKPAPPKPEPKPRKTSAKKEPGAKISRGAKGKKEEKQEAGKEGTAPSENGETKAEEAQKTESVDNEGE

Compound: Nc1ncnc2c1ncn2[C@@H]1O[C@H](COP(=O)(O)OP(=O)(O)OP(=O)(O)O)[C@@H](O)[C@H]1O [adenosine triphosphate]
Assay: NP40-soluble protein abundance relative to vehicle (solubility fold change) (ratio); higher = more soluble protein in presence of ATP
Outline: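 Each value is a fold change relative to the detergent-processed vehicle, calculated per replicate from vsn-normalised intensities. Jurkat crude lysate received eight concentrations (0.1 to 10 mM) for 10 min at room temperature and 3 min at 37 °C, then was solubilised in 0.8% NP40 with benzonase (60 min, 4 °C). The ultracentrifuged supernatant was TMT-labelled and run by LC-MS/MS in three independent experiments.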

Target	NP40-soluble protein abundance (concentration: 0.1mM)	NP40-soluble protein abundance (concentration: 0.5mM)
A0A087WT30|Q8N5I9 (UniProt Q8N5I9)	0.969 ± 0.015	0.975 ± 0.07
A0A087X0Q9|Q9BVL4 (UniProt Q9BVL4)	1.07 ± 0.026	1.03 ± 0.048
A0A087WT20|Q9NV06 (UniProt Q9NV06)	1.12 ± 0.026	1.1 ± 0.056
A0A0C4DGA2|O75521 and related entries (UniProt O75521)	1.01 ± 0.056	1.04 ± 0.043
A0A087X0Q1|Q7Z739 (UniProt Q7Z739)	0.966 ± 0.012	0.992 ± 0.029
A0A0A0MSE2|E9PF18 and related entries (UniProt Q16836)	1.01 ± 0.023	1.01 ± 0.041
A0A087WZX2|O95139 (UniProt O95139)	0.852 ± 0.19	0.8 ± 0.24
A0A0C4DGX2|E7ESL0 and related entries (UniProt Q9NWU5)	0.99 ± 0.11	1.06 ± 0.093
A0A087WYK8|B1AKJ5 and related entries (UniProt O43847)	1.06 ± 0.057	1.06 ± 0.06
A0A0C4DFP8|Q5HYA8 (UniProt Q5HYA8)	0.928 ± 0.14	0.997 ± 0.037
A0A0A0MSE9|B7WPA5 and related entries (UniProt Q96CS7)	1.13 ± 0.035	1.13 ± 0.16
A0A0A0MRR5|Q96BW1 and related entries (UniProt Q96BW1)	0.997 ± 0.045	1.09 ± 0.099
A0A087WVS8|Q70IA6 and related entries (UniProt Q70IA6)	1.05 ± 0.029	1.04 ± 0.068
A0A0D9SFK2|Q92614 and related entries (UniProt Q92614)	0.977 ± 0.037	0.999 ± 0.072
A0A0D9SFE4|A0A0D9SFB1|A0A0U1RQP1|Q05193 and related entries (UniProt Q05193)	1.02 ± 0.044	1.04 ± 0.02
A0A0A6YYI3|A0A0B4J1V8|Q9NQ55 and related entries (UniProt Q9NQ55)	0.997 ± 0.038	1.03 ± 0.021
A0A0A0MTR2|Q8N543 (UniProt Q8N543)	1.04 ± 0.066	1.05 ± 0.086
A0A0C4DFY0|Q14242 and related entries (UniProt Q14242)	0.767 ± 0.15	0.785 ± 0.066
A0A087WU31|A0A0A0MTB7|P51790 and related entries (UniProt P51790)	0.962 ± 0.076	0.983 ± 0.027
A0A0A0MSK6|Q13017 and related entries (UniProt Q13017)	1.11 ± 0.034	1.09 ± 0.087
A0A0A0MSS8|P42330 and related entries (UniProt P42330)	1.03 ± 0.062	0.924 ± 0.057
A0A0A0MSH9|Q86WJ1 and related entries (UniProt Q86WJ1)	1.04 ± 0.041	1.04 ± 0.052

For reference, some entries already given.
Target	NP40-soluble protein abundance (concentration: 0.1mM)	NP40-soluble protein abundance (concentration: 0.5mM)
A0A0A0MSE9|B7WPA5 and related entries (UniProt Q96CS7)	1.13 ± 0.035	1.13 ± 0.16
A0A0A0MRR5|Q96BW1 and related entries (UniProt Q96BW1)	0.997 ± 0.045	1.09 ± 0.099

Following part

Target	NP40-soluble protein abundance (concentration: 0.1mM)	NP40-soluble protein abundance (concentration: 0.5mM)
A0A087X0N3 (UniProt Q96MY1)	0.927 ± 0.025	0.943 ± 0.025
A0A0A6YY95|Q9Y240 (UniProt Q9Y240)	0.98 ± 0.034	0.9447 ± 0.0062
A0A096LP75|C4AMC7 and related entries (UniProt Q6VEQ5+C4AMC7)	0.932 ± 0.034	0.8573 ± 0.0038
A0A0A0MTS7|Q8WZ42-12 (UniProt Q8WZ42)	0.964 ± 0.038	0.962 ± 0.053
A0A087WZN1|O43837 (UniProt O43837)	1.02 ± 0.09	1.04 ± 0.043
A0A087WUU9|P47974 (UniProt P47974)	1.04 ± 0.04	1.01 ± 0.032
A0A087X1A8|D3VVH9 and related entries (UniProt P54252)	0.995 ± 0.019	0.994 ± 0.011
A0A0A0MTJ9|A0A0R4J2G3|Q6PIU2 and related entries (UniProt Q6PIU2)	1 ± 0.053	0.996 ± 0.045
A0A087X1Z1|A0A0G2JPW5|A0A0G2JQX1|A0A0G2JSA7|Q96RT8 and related entries (UniProt Q96RT8)	0.953 ± 0.014	0.963 ± 0.12
A0A0A0MSY7|E5KNQ5 and related entries (UniProt O00142)	1.14 ± 0.058	0.992 ± 0.11
A0A087WWK8|Q6DN90 (UniProt Q6DN90)	0.999 ± 0.15	1.06 ± 0.18
A0A087WTU1|A0A087X0S7|A0A0B4J2G4|A0A0C4DH00|Q15345 and related entries (UniProt Q15345)	1.06 ± 0.045	0.999 ± 0.022
A0A087WYM3|Q8IXJ6 and related entries (UniProt Q8IXJ6)	0.953 ± 0.047	0.984 ± 0.053
A0A0A0MR66		1.09 ± 0.081
A0A0C4DH01|Q9NVU0 and related entries (UniProt Q9NVU0)	1.01 ± 0.086	1 ± 0.14
A0A0A0MSA9|A0A0C4DG49|P15151 and related entries (UniProt P15151)	0.966 ± 0.017	0.861 ± 0.2
A0A0C4DH16|B8ZZS0 and related entries (UniProt Q9NYM9)	0.857 ± 0.094	0.834 ± 0.18
A0A087WU53|Q9H0U3 (UniProt Q9H0U3)	0.984 ± 0.026	0.993 ± 0.024
A0A087WZE9|Q15651 (UniProt Q15651)	1.03 ± 0.14	1.07 ± 0.2
A0A087X1G7|A0A0B4J1S4|O60613 (UniProt O60613)	0.945 ± 0.041	0.919 ± 0.033
A0A0A0MR06|O15258 and related entries (UniProt O15258)	0.917 ± 0.047	0.96 ± 0.11
